Experimental data reported in the supplement of paper PMC10849652.
The list shows a part of the results.

Chains of the proteins cited; added tags and fusions are not shown. Lines headed by an entry give the natural chain unless they say otherwise; changes in a name come on top.
UniProt Q15418, whole entry, looked up: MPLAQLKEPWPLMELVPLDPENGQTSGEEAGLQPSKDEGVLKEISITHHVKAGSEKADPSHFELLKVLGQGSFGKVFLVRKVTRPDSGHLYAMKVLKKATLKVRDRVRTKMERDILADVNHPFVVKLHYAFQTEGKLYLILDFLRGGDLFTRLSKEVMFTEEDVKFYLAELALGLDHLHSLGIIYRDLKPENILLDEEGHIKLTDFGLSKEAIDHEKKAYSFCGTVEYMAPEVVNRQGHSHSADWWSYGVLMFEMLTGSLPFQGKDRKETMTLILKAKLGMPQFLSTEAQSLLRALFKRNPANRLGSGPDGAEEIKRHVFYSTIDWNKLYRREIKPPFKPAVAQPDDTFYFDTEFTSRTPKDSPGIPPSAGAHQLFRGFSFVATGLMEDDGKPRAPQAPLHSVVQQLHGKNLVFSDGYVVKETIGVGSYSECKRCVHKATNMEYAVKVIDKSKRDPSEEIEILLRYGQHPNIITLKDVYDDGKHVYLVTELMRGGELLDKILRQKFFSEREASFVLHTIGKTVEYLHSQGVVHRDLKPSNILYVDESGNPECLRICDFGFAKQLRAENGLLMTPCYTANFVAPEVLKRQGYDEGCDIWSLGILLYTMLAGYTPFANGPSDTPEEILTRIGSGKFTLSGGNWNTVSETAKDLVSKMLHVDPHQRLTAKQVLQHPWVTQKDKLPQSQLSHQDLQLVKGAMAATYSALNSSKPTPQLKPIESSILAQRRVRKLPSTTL
UniProt Q8N122, whole entry, looked up: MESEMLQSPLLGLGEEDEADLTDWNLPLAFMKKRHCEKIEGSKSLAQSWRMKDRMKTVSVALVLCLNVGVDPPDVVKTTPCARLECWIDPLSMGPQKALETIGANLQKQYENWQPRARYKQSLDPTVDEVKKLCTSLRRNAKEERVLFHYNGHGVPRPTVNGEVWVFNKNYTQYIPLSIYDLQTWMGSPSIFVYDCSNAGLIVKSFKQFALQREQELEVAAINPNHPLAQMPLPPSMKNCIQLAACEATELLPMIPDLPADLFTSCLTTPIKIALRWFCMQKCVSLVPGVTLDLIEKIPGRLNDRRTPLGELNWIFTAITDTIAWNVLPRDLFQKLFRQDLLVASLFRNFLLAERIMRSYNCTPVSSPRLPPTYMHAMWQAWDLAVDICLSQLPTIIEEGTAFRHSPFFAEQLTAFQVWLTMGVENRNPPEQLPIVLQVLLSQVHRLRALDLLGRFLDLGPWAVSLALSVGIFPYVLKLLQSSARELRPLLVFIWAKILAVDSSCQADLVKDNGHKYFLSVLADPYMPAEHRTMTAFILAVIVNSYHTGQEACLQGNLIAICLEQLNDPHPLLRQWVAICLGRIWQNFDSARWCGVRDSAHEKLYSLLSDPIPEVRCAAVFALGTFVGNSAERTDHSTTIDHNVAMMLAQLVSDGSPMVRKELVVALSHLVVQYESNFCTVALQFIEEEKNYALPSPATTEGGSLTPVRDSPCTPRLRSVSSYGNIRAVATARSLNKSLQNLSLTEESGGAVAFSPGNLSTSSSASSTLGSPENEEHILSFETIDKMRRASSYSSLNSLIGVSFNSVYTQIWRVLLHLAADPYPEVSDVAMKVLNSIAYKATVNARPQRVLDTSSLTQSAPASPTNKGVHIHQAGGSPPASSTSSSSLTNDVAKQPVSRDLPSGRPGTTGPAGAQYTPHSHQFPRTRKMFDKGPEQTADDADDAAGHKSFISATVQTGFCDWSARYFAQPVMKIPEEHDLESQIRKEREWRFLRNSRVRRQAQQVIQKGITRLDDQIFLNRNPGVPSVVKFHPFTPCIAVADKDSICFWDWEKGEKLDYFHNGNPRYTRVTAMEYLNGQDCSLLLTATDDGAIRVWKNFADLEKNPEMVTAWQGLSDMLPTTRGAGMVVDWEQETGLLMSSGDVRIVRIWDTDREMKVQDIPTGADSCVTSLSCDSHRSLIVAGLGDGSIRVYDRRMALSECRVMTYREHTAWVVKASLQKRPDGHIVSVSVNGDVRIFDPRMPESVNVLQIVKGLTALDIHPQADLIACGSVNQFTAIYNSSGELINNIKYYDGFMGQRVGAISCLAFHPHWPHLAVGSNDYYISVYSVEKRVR
UniProt P62070: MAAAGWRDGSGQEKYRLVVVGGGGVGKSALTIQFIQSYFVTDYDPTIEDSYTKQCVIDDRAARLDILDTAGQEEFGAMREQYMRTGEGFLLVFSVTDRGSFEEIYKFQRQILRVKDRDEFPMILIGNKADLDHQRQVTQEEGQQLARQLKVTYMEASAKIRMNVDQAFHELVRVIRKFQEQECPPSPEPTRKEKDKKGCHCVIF
UniProt O75150, whole entry, looked up: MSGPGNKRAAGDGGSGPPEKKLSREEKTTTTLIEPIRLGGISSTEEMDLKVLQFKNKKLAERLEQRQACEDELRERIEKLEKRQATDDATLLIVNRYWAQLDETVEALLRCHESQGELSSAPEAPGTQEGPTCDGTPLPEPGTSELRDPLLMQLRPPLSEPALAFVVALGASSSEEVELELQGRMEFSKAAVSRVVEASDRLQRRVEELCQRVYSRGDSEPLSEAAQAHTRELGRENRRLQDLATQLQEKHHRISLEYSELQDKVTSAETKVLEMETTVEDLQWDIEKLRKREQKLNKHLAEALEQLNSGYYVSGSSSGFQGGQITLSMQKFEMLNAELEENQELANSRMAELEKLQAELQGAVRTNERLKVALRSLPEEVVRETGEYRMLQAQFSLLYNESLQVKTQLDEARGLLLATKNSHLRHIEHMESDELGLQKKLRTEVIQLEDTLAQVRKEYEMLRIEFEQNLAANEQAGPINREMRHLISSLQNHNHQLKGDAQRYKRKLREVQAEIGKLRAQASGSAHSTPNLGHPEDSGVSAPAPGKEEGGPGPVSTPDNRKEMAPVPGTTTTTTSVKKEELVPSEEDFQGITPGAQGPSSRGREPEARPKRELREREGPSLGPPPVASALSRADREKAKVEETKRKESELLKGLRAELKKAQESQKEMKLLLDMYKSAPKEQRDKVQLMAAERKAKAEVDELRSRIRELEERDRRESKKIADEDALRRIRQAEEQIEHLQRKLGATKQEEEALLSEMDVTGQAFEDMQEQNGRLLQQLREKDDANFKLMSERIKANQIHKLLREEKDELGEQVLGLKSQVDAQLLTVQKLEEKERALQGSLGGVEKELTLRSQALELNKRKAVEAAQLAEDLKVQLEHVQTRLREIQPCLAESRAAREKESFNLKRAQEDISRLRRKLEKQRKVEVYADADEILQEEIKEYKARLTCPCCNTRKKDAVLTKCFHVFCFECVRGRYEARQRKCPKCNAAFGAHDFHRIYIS
UniProt Q9H633: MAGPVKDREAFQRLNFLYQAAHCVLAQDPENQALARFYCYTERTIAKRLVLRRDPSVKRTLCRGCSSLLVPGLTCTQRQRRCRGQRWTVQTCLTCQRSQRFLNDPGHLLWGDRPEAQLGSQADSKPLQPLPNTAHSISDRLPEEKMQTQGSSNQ
UniProt Q13464: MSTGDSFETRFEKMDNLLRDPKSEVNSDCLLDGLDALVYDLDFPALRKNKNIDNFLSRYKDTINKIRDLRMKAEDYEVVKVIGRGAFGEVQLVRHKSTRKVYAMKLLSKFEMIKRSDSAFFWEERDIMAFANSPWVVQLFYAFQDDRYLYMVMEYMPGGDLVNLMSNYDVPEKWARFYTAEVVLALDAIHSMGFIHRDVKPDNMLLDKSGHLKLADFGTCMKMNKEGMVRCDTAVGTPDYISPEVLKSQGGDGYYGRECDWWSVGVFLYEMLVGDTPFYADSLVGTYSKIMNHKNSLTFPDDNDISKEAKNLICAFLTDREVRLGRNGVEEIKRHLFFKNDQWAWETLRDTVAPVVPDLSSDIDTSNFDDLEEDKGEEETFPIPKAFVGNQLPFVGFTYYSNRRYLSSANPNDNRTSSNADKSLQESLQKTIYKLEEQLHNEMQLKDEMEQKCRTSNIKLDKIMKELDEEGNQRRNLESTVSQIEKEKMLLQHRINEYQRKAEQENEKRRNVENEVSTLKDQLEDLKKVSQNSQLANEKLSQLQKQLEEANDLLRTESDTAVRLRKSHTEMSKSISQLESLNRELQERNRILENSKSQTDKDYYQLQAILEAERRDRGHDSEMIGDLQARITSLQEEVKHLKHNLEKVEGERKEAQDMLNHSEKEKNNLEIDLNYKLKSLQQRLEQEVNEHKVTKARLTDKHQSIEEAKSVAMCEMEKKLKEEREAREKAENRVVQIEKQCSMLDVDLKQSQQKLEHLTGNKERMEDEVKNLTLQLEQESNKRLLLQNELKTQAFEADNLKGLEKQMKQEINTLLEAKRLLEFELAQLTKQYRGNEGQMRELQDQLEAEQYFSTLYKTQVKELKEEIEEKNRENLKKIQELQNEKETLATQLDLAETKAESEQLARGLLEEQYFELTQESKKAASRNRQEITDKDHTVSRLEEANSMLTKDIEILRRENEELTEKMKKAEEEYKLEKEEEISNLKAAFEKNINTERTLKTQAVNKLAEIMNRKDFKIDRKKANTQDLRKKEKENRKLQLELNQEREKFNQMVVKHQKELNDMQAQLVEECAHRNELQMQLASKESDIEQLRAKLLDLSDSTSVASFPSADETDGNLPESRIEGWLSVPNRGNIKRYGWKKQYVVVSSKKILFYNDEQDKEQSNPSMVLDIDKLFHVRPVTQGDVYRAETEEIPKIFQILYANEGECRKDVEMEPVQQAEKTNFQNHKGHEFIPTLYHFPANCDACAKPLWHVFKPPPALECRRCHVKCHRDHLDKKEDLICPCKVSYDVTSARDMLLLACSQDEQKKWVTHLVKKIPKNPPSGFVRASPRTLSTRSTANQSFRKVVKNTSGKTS
UniProt Q9H4A4: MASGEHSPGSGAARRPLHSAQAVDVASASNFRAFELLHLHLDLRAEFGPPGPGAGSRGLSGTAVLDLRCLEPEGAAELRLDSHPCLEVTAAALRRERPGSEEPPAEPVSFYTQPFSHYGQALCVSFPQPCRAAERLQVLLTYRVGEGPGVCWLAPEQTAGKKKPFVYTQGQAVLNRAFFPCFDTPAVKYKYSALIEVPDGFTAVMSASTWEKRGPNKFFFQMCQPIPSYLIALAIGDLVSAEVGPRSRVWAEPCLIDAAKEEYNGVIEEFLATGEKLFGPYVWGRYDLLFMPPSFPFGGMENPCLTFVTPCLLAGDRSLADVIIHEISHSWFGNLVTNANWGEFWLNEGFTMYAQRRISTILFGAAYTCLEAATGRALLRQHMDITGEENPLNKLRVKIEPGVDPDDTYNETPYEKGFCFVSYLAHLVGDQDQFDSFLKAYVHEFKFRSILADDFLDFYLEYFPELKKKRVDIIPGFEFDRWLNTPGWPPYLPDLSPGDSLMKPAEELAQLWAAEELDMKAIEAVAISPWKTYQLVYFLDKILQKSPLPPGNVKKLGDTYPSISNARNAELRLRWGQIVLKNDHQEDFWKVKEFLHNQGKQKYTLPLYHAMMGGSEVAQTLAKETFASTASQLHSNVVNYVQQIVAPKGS
UniProt P27694, whole entry, looked up: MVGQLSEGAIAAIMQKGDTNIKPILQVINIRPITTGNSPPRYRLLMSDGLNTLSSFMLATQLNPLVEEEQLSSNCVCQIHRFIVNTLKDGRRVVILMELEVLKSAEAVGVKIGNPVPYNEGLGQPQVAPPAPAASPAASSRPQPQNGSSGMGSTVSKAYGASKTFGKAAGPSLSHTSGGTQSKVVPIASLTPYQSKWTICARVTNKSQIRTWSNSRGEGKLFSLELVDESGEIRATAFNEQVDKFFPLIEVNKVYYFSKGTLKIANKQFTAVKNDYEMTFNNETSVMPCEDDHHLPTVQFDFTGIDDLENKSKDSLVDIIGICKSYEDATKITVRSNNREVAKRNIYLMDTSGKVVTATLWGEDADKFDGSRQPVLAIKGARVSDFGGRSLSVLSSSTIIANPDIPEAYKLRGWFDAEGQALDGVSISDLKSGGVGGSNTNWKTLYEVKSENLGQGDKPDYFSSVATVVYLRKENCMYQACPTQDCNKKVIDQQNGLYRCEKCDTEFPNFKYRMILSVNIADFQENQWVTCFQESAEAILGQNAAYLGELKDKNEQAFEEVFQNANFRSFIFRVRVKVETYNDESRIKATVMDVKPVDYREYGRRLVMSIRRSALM
UniProt P13489: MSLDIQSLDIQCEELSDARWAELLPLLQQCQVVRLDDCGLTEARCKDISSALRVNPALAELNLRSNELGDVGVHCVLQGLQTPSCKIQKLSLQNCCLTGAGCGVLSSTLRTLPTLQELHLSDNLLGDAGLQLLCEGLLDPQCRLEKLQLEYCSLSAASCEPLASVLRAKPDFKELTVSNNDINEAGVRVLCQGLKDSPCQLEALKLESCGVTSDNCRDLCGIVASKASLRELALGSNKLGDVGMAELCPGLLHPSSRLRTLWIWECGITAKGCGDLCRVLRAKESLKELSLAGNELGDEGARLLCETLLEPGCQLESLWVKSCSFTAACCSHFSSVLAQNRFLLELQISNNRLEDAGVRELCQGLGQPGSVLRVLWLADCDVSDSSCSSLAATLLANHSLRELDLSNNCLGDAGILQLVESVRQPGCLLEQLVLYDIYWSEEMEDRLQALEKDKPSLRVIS

Columns and labels:
Experiment in all cases: log2 fold change, soluble protein after heating vs DMSO (PISA); higher = thermal stabilisation; K562 cells, 10 uM, 30 min; active = over 0.2 and 3.5 SD of the protein, either way, in both replicates (recomputed)
saracatinib = compound: CN1CCN(CCOc2cc(OC3CCOCC3)c3c(Nc4c(Cl)ccc5c4OCO5)ncnc3c2)CC1 [saracatinib]
How it was run: (§1)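 K562 cells at 2×10^6 cells/mL were exposed to 10 μM compound for 30 min, then aliquots were heated for 3 min across 48°C-58°C, pooled, and extracted in PBS containing 0.5% NP-40 at 4°C. The supernatant after 21,000xg for 90 min was taken as soluble protein and measured by TMTpro 16plex LC-MS/MS with channel sums equalised. Thermal stability is reported relative to control samples, with values from duplicates. Fold changes are given on a log2 scale.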

sotrastaurin = compound: CN1CCN(c2nc(C3=C(c4c[nH]c5ccccc45)C(=O)NC3=O)c3ccccc3n2)CC1 [sotrastaurin]
How it was run: as §1

Tubastatin A = compound: CN1CCc2c(c3ccccc3n2Cc2ccc(C(=O)NO)cc2)C1 [Tubastatin A]
How it was run: as §1

[1] = compound: CNC(=O)C1=CC=CC=C1NC2=NC(=NC=C2Cl)NC3=C(C=C(C=C3)N4CCOCC4)OC
How it was run: as §1

defactinib = compound: CNC(=O)c1ccc(Nc2ncc(C(F)(F)F)c(NCc3nccnc3N(C)S(C)(=O)=O)n2)cc1 [defactinib]
How it was run: as §1

rucaparib = compound: CNCc1ccc(-c2[nH]c3cc(F)cc4c3c2CCNC4=O)cc1 [rucaparib]
How it was run: as §1

[2] = compound: CNc1nc(-c2ccc3c(N)n[nH]c3c2)cc(N2C[C@@H](C(=O)NC3CCCCC3)CC[C@H]2C)n1
How it was run: as §1

encorafenib = compound: COC(=O)N[C@@H](C)CNc1nccc(-c2cn(C(C)C)nc2-c2cc(Cl)cc(NS(C)(=O)=O)c2F)n1 [encorafenib]
How it was run: as §1

[3] = compound: COC(=O)[C@H](CCSC)NC(=O)C1=C(C=C(C=C1)NC[C@H](CS)N)C2=CC=CC=C2
How it was run: as §1

alvocidib = compound: CN1CC[C@H](c2c(O)cc(O)c3c(=O)cc(-c4ccccc4Cl)oc23)[C@H](O)C1 [alvocidib]
How it was run: as §1

Measured: log2 fold change

RRAGC (UniProt Q9HB90)
inactive: saracatinib 0.023 | sotrastaurin 0.006 | Tubastatin A -0.025 | [1] -0.014 | defactinib -0.005 | rucaparib -0.058 | [2] -0.063 | encorafenib 0.036 | [3] -0.005

RPL18 (UniProt Q07020)
inactive: saracatinib -0.142 | sotrastaurin -0.037 | alvocidib 0.485 | Tubastatin A 0.249 | [1] 0.074 | defactinib 0.686 | rucaparib 0.516 | [2] 0.219 | encorafenib 0.234 | [3] 0.085

RPS6KA1 isoform 2 (UniProt Q15418)
inactive: saracatinib 0.02 | sotrastaurin -0.067 | Tubastatin A 0.005 | [1] -0.088 | defactinib -0.258 | rucaparib -0.108 | [2] -0.101 | encorafenib -0.018 | [3] -0.015

RPP14 (UniProt O95059)
inactive: saracatinib 0.064 | sotrastaurin -0.01 | Tubastatin A 0.059 | [1] -0.039 | defactinib 0.012 | rucaparib 0.004 | [2] -0.029 | encorafenib 0.046 | [3] -0.034

RPTOR (UniProt Q8N122)
inactive: saracatinib -0.005 | sotrastaurin -0.01 | Tubastatin A 0.027 | [1] -0.044 | defactinib -0.074 | rucaparib -0.068 | [2] 0.033 | encorafenib 0.047 | [3] -0.039

RPL37A (UniProt P61513)
inactive: saracatinib -0.236 | sotrastaurin -0.021 | alvocidib 0.405 | Tubastatin A 0.215 | [1] 0.018 | defactinib 0.675 | rucaparib 0.532 | [2] 0.24 | encorafenib 0.175 | [3] 0.001

RRAS2 isoform 4 (UniProt P62070)
inactive: saracatinib 0.069 | sotrastaurin 0.075 | Tubastatin A 0.014 | [1] -0.001 | defactinib -0.016 | rucaparib 0 | [2] 0.05 | encorafenib -0.011 | [3] 0.004

RNF40 (UniProt O75150)
inactive: saracatinib -0.2 | sotrastaurin -0.344 | alvocidib -0.232 | Tubastatin A 0.264 | [1] -0.11 | defactinib -0.017 | [2] 0.188 | [3] -0.011

RPS3A (UniProt P61247)
inactive: saracatinib -0.034 | sotrastaurin 0.015 | Tubastatin A 0.075 | [1] 0.105 | defactinib 0.192 | rucaparib 0.101 | [2] 0.069 | encorafenib 0.047 | [3] -0.018

RPS10 (UniProt P46783)
inactive: saracatinib -0.04 | sotrastaurin 0.012 | alvocidib 0.162 | Tubastatin A 0.038 | [1] 0.062 | defactinib 0.114 | rucaparib 0.131 | [2] 0.047 | encorafenib 0.019 | [3] 0.004

2 records drawn at random from the list so far, as already listed:
RPL18 (UniProt Q07020)
inactive: saracatinib -0.142 | sotrastaurin -0.037 | alvocidib 0.485 | Tubastatin A 0.249 | [1] 0.074 | defactinib 0.686 | rucaparib 0.516 | [2] 0.219 | encorafenib 0.234 | [3] 0.085

RPTOR (UniProt Q8N122)
inactive: saracatinib -0.005 | sotrastaurin -0.01 | Tubastatin A 0.027 | [1] -0.044 | defactinib -0.074 | rucaparib -0.068 | [2] 0.033 | encorafenib 0.047 | [3] -0.039

(cont.)

RPP21 isoform 4 (UniProt Q9H633)
inactive: saracatinib 0.069 | sotrastaurin -0.015 | alvocidib -0.028 | Tubastatin A 0.115 | [1] -0.044 | defactinib -0.205 | rucaparib -0.006 | [2] 0.003 | encorafenib 0.003 | [3] -0.037

RPS3 (UniProt P23396)
inactive: saracatinib -0.03 | sotrastaurin 0.031 | Tubastatin A 0.094 | [1] 0.082 | defactinib 0.208 | rucaparib 0.097 | [2] 0.04 | encorafenib 0.045 | [3] 0.002

RPL31 (UniProt P62899)
inactive: saracatinib -0.068 | sotrastaurin -0.003 | Tubastatin A 0.147 | [1] 0.096 | defactinib 0.282 | rucaparib 0.238 | [2] 0.121 | encorafenib 0.088 | [3] -0.052

RPS5 (UniProt P46782)
inactive: saracatinib -0.038 | sotrastaurin 0.018 | Tubastatin A 0.084 | [1] 0.065 | defactinib 0.121 | rucaparib 0.096 | [2] 0.103 | encorafenib 0.054 | [3] -0.026

ROCK1 (UniProt Q13464)
inactive: saracatinib -0.006 | sotrastaurin -0.056 | Tubastatin A -0.009 | [1] -0.016 | defactinib -0.023 | rucaparib 0.021 | [2] 0.122 | encorafenib 0.031 | [3] -0.015

RPS12 (UniProt P25398)
inactive: saracatinib -0.014 | sotrastaurin -0.023 | Tubastatin A 0.017 | [1] 0.049 | defactinib 0.092 | rucaparib 0.12 | [2] -0.008 | encorafenib 0.02 | [3] 0.015

RNPEP (UniProt Q9H4A4)
inactive: saracatinib -0.02 | sotrastaurin -0.038 | Tubastatin A 0.064 | [1] 0.034 | defactinib -0.036 | rucaparib -0.004 | [2] 0.04 | encorafenib -0.005 | [3] -0.041

RPA1 (UniProt P27694)
inactive: saracatinib -0.007 | sotrastaurin -0.016 | Tubastatin A 0.039 | [1] 0.012 | defactinib -0.076 | rucaparib 0.027 | [2] -0.01 | encorafenib 0.076 | [3] -0.021

RPS19 (UniProt P39019)
inactive: saracatinib -0.024 | sotrastaurin 0.001 | Tubastatin A 0.089 | [1] 0.07 | defactinib 0.167 | rucaparib 0.136 | [2] 0.064 | encorafenib 0.028 | [3] -0.004

RP9 (UniProt Q8TA86)
inactive: saracatinib -0.131 | sotrastaurin -0.039 | alvocidib 0.258 | Tubastatin A 0.09 | [1] -0.175 | rucaparib 0.209 | [2] -0.018 | encorafenib 0.117

RNH1 (UniProt P13489)
inactive: saracatinib 0.013 | sotrastaurin -0.031 | alvocidib -0.081 | Tubastatin A -0.004 | [1] 0.233 | defactinib -0.038 | rucaparib -0.059 | [2] -0.032 | encorafenib -0.018 | [3] 0.015

RPS20 isoform 2 (UniProt P60866)
inactive: saracatinib -0.1 | sotrastaurin 0.019 | Tubastatin A 0.054 | [1] 0.066 | defactinib 0.216 | rucaparib 0.093 | [2] -0.009 | encorafenib 0.041 | [3] 0.001

RPL30 (UniProt P62888)
inactive: saracatinib -0.139 | sotrastaurin 0.029 | alvocidib 0.416 | Tubastatin A 0.226 | [1] 0.049 | defactinib 0.537 | rucaparib 0.488 | [2] 0.189 | encorafenib 0.242 | [3] -0.029

RPS18 (UniProt P62269)
inactive: saracatinib -0.022 | sotrastaurin 0.039 | Tubastatin A 0.105 | [1] 0.071 | defactinib 0.21 | rucaparib 0.152 | [2] 0.041 | encorafenib 0.008 | [3] 0.04

RPS25 (UniProt P62851)
inactive: saracatinib -0.052 | sotrastaurin 0.007 | Tubastatin A 0.094 | [1] 0.095 | defactinib 0.184 | rucaparib 0.124 | [2] 0.076 | encorafenib 0.01 | [3] 0.024

RNPS1 (UniProt Q15287)
inactive: saracatinib 0.036 | sotrastaurin 0.013 | Tubastatin A 0.107 | [1] -0.243 | defactinib -0.067 | rucaparib 0.023 | [2] -0.026 | encorafenib -0.033 | [3] -0.019

RPS2 (UniProt P15880)
inactive: saracatinib -0.058 | sotrastaurin 0 | Tubastatin A 0.059 | [1] 0.064 | defactinib 0.261 | rucaparib 0.153 | [2] 0.081 | encorafenib 0.07 | [3] 0.042

RPS15A (UniProt P62244)
inactive: saracatinib -0.099 | sotrastaurin -0.021 | alvocidib 0.297 | Tubastatin A 0.155 | [1] 0.074 | defactinib 0.31 | rucaparib 0.218 | [2] 0.144 | encorafenib 0.12 | [3] -0.03

RPL15 (UniProt P61313)
inactive: saracatinib -0.193 | sotrastaurin -0.006 | alvocidib 0.487 | Tubastatin A 0.252 | [1] 0.026 | defactinib 0.731 | rucaparib 0.465 | [2] 0.277 | encorafenib 0.256 | [3] 0.048

RPS21 (UniProt P63220)
inactive: saracatinib -0.017 | sotrastaurin 0.005 | Tubastatin A 0.246 | [1] 0.039 | defactinib 0.052 | rucaparib -0.039 | [2] -0.001 | encorafenib 0.021 | [3] 0.027

RPP25L (UniProt Q8N5L8)
inactive: saracatinib -0.079 | sotrastaurin -0.087 | Tubastatin A 0.026 | [1] 0.062 | defactinib 0.002 | rucaparib -0.032 | [2] -0.158 | encorafenib 0.014 | [3] 0.058
